Results are given in words; binding and its absence hold for the method and conditions named. Binding seen in cells or lysates may run through a third protein. Some results given as binding are weak or reduced against the parent protein; the word gives no strength.
Target: Ran binding protein M (RanBPM) (human (endogenous in HEK293)) (UniProt Q96S59)
Assay: co-IP; HEK293 whole cell extracts adjusted to 0.25% NP-40, pre-cleared, RanBPM antibody overnight at 4 °C, Dynabeads protein G, washed three times in lysis buffer; Western blot; mouse IgG as negative control; also from RMND5A KO cells (Supplementary Fig. 4)

By UniProt entry, the sequences of proteins in these tests, tags left out.
UniProt Q96S59: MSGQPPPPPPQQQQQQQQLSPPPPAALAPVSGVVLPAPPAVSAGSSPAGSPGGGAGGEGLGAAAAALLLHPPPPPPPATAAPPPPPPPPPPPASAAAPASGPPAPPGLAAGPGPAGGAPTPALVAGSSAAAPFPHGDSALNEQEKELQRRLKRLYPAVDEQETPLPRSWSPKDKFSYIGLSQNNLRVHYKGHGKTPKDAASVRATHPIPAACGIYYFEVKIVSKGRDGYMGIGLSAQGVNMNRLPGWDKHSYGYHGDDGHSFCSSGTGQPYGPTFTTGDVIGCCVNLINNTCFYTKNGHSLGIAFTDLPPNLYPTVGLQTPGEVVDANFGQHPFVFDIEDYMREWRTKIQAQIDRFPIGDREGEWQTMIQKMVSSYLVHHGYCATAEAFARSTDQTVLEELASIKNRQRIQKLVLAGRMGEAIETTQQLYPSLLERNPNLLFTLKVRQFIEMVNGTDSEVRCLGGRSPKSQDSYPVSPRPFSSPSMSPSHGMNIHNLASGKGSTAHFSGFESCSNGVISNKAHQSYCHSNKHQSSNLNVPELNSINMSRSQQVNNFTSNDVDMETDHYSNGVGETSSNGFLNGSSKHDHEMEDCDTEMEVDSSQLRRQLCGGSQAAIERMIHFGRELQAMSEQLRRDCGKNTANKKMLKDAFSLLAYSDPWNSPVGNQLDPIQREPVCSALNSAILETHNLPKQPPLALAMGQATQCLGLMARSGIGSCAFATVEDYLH
UniProt Q8IUR7: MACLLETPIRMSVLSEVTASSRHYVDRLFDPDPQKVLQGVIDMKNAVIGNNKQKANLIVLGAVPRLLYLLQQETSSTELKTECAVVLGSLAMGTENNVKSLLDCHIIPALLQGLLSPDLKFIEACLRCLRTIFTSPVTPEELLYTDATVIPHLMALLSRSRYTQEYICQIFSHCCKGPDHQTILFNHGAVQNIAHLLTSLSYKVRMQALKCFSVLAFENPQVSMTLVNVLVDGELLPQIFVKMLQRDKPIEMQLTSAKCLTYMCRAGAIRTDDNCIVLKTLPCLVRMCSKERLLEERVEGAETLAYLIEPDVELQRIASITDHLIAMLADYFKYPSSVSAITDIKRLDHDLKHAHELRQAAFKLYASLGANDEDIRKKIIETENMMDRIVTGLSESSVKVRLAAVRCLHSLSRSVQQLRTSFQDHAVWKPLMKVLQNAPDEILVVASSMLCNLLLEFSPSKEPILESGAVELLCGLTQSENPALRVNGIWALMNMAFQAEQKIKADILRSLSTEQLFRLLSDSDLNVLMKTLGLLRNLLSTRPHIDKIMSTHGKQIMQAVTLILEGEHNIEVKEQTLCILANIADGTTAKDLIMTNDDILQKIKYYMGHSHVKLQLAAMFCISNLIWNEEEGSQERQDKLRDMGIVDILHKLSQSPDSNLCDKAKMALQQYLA
UniProt Q9H7D7: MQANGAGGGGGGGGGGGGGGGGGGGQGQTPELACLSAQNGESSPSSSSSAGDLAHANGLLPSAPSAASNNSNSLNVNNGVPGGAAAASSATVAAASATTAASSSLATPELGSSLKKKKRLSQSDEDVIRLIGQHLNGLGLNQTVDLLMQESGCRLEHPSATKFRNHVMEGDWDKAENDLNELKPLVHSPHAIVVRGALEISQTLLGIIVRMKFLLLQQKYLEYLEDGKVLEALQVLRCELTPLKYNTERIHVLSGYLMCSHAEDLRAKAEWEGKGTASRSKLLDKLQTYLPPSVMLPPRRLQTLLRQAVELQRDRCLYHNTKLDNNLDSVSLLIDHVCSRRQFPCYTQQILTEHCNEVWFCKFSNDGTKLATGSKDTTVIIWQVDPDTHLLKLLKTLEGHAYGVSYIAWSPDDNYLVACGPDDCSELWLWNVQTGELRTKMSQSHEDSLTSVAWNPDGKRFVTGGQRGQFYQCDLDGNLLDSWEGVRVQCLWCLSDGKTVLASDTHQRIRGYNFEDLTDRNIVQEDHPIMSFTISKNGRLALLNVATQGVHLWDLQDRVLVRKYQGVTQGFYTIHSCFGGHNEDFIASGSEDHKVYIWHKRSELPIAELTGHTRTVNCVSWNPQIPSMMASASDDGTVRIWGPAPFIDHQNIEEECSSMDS
UniProt Q9H871: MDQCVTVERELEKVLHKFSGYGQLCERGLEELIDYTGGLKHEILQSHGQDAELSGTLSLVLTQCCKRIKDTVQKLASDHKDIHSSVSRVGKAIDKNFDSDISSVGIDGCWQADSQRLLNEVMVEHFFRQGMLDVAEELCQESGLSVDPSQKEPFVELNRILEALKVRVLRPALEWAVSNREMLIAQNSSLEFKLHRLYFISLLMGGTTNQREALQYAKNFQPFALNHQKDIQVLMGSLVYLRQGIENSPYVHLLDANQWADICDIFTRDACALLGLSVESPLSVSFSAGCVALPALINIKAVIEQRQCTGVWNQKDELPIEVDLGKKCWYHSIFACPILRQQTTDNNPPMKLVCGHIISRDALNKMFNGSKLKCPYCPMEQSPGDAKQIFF

Row | binding | Substance
1 | binds | Armadillo Repeat Containing 8 isoform α (ARMC8α) (from UniProt Q8IUR7 1-673)
2 | binds | WD repeat-containing protein 26 (WDR26), endogenous (from UniProt Q9H7D7 1-661)
3 | binds | Required For Meiotic Nuclear Division 5 Homolog A (RMND5A), endogenous (from UniProt Q9H871 1-391)

— publication PMC6614414
